Test results: publication PMC9469104
These are yes or no findings as the source states them, for the method shown. Binding seen in cells or lysates may run through a third protein. Some entries that bind do so weakly or less than the wild type.

Sequences of proteins named here, by UniProt entry; tags and fusion partners are left off.
UniProt Q15910: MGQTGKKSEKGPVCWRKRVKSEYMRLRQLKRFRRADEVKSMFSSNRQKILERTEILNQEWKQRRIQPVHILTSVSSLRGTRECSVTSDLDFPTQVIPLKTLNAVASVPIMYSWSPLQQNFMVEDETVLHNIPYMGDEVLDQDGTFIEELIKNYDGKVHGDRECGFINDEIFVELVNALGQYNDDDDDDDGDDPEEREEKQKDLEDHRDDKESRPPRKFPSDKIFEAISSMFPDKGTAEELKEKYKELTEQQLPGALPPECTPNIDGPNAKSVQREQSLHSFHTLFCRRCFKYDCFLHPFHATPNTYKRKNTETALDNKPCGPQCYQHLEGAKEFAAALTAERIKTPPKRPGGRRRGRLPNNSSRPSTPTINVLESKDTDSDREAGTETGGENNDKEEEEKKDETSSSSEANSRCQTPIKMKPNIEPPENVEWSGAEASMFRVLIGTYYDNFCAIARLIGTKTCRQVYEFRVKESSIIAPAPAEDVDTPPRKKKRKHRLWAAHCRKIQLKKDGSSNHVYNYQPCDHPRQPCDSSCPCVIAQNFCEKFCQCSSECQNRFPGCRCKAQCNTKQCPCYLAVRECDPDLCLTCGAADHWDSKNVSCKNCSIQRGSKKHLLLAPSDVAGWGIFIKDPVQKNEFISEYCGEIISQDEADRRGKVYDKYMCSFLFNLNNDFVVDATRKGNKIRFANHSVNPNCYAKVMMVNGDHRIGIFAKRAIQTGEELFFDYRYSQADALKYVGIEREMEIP
UniProt Q96AE4: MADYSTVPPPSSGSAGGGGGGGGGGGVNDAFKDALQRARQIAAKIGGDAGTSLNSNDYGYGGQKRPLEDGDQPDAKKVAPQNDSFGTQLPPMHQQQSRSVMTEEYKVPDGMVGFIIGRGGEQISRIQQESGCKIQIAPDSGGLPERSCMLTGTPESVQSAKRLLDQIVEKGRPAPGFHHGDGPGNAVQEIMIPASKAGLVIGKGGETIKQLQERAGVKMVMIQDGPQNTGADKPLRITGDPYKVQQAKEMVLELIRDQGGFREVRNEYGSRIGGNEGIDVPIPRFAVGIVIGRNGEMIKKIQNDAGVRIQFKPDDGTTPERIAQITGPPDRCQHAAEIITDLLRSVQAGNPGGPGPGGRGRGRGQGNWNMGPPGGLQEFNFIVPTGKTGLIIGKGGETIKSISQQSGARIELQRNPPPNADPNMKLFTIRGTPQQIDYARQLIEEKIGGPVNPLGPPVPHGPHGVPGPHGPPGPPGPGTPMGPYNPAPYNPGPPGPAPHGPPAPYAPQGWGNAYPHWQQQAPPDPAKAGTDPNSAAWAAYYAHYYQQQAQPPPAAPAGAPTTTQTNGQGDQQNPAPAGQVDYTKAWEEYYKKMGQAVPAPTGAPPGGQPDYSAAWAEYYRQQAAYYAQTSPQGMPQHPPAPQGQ

Biological target: enhancer of zeste homolog 2 (human (endogenous in SKOV-3)) (UniProt Q15910)
Assay: co-IP; endogenous proteins in SKOV-3 whole cell lysate (150 mM NaCl, 50 mM Tris-HCl, 1 mM EDTA pH 7.5, 1% NP-40); precipitated with anti-FBP1 antibody, anti-EZH2 antibody or isotype IgG and Protein A+G agarose beads at 4°C; Western blot

binding: binds
Substance: far upstream element binding protein 1 (from UniProt Q96AE4 1-644)
